These are yes or no findings as the source states them, for the method shown. Binding seen in cells or lysates may run through a third protein. Some entries that bind do so weakly or less than the wild type.
B1: Exportin 2 (XPO2), endogenous in mouse embryonic fibroblasts (protein, UniProt Q9ERK4 1-971)
chain: MELSDANLQTLTEYLKKTLDPDPAIRRPAEKFLESVEGNQNYPLLLLTLLEKSQDNVIKVCASVTFKNYIKRNWRIVEDEPNKICEADRVAIKANIVHLMLSSPEQIQKQLSDAISIIGREDFPQKWPDLLTEMVNRFQSGDFHVINGVLRTAHSLFKRYRHEFKSNELWTEIKLVLDAFALPLTNLFKATIELCSTHANDASALRILFSSLILISKLFYSLNFQDLPEFFEDNMETWMNNFHTLLTLDNKLLQTDDEEEAGLLELLKSQICDNAALYAQKYDEEFQRYLPRFVTAIWNLLVTTGREVKYDLLVSNAIQFLASVCERPHYKNLFEDQNTLTSICEKVIVPNMEFRAADEEAFEDNSEEYIRRDLEGSDIDTRRRAACDLVRGLCKFFEGPVTGIFSGYVNSMLQEYAKNPSVNWKHKDAAIYLVTSLASKAQTQKHGITQANELVNLTEFFVNHILPDLKSNNVNEFPVLKADGIKYIMIFRNQVPKEHLLVSIPLLISHLEAESIVVHTYAAHALERLFTMRGSNNTTLFTAAEIAPFVEILLTNLFKALTLPGSSENEYIMKAIMRSFSLLQEAIIPYIPTLITQLTQKLLAVSKNPSKPHFNHYMFEAICLSIRITCKANPAAVVNFEEALFLVFTEILQNDVQEFIPYVFQVMSLLLETHKNDIPSSYMALFPHLLQPVLWERTGNIPALVRLLQAFLERGSSTIATAAADKIPGLLGVFQKLIASKANDHQGFYLLNSIIEHMPPESVDQYRKQIFILLFQRLQNSKTTKFIKSFLVFINLYCIKYGALALQEIFDGIQPKMFGMVLEKIIIPEIQKVSGNVEKKICAVGITKLLTECPPMMDTEYTKLWTPLLQSLIGLFELPEDDSIPDEEHFIDIEDTPGYQTAFSQLAFAGKKEHDPVGQMVNNPKIHLAQSLHKLSTACPGRVPSMVSTSLNAEALQYLQGYLQAASVTLL

Sequences of proteins named here, by UniProt entry; tags and fusion partners are left off.
UniProt Q8BGW1: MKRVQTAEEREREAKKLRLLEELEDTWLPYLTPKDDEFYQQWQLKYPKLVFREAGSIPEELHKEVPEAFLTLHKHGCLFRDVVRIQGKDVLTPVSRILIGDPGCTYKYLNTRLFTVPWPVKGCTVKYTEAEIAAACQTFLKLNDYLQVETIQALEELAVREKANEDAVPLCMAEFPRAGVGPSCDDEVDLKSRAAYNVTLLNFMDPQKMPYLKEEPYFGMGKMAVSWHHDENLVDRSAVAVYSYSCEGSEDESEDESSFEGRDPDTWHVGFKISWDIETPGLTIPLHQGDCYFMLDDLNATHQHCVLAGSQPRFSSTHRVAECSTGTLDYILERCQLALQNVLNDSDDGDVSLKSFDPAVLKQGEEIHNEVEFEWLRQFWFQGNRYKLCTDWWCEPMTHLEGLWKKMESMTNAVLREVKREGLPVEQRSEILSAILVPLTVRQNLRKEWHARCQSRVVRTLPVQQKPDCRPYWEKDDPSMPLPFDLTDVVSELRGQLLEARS

Tests used:
[1] = target: Flag-epitope tagged FTO (fat mass and obesity-associated protein), WT full-length (UniProt Q9C0B1); experiment: co-IP; Flag IP from extracts of HEK-293 cells transfected with vector alone, Flag-FTO or truncated FTO, 48 h; Western blotting of the immunoprecipitates
[2] = target: FTO, endogenous in wild-type mouse embryonic fibroblasts (mouse (endogenous in MEFs)) (UniProt Q8BGW1); experiment: co-IP; IP of endogenous FTO with anti-FTO antibody from extracts of Fto+/+ and Fto-/- MEFs; Western blotting

Molecule | binding [1] | binding [2]
Exportin 2 (XPO2), endogenous in HEK-293 cells (from UniProt P55060 1-971) | binds | 
B1 |  | binds

Reference: PMC4206862
